PMC5949603 (Chemical Science, 2015)

Experiment: general procedure: Fmoc solid-phase peptide synthesis; Wang resin; 2-chlorotrityl (2CT) resin; HATU, iPr2EtN (cyclisations)
Conditions: for isolated yield: whole synthesis; for cyclisation yield: cyclisation step, second cyclization
[1] = total yield (SPPS and second thioether ligation), TFA salt

Substance: E ^2 E ^1 Ef z ^2 FK^1GFGGK(biot)
- isolated yield [1]: 4%

Substance: K^2E^1Kwz^2WK^1GFGGK(biot)
- isolated yield [1]: 5%

Substance: LG[dK][dY]PEA (lactam 3-C, N-6; SMILES CC(C)C[C@@H]1NC(=O)CC[C@@H]2NC(=O)[C@@H]3CCCN3C(=O)[C@@H](Cc3ccc(O)cc3)NC(=O)[C@@H](CCCCNC(=O)[C@H](C)NC2=O)NC(=O)CNC1=O)
- cyclisation yield (TFA salt): 42%

Substance: L^1GKFPE^1A
- isolated yield (trifluoroacetate salts): 30%

Substance: L^1GKYPE^1A
- isolated yield (trifluoroacetate salts): 35%

Substance: R ^2 E ^1 Rf z ^2 FK^1GFGGK(biot)
- isolated yield [1]: 4%

Substance: [dL]G[dK][dF]PE[dA] (lactam 3-C, N-6; SMILES CC(C)C[C@H]1NC(=O)CC[C@@H]2NC(=O)[C@@H]3CCCN3C(=O)[C@@H](Cc3ccccc3)NC(=O)[C@@H](CCCCNC(=O)[C@@H](C)NC2=O)NC(=O)CNC1=O)
- cyclisation yield (TFA salt): 82%

Substance: {CH2CO}-KEK[dW][dC]WKG-NH2 (lactam 2-7; thioether N-5; SMILES NCCCC[C@@H]1NC(=O)CSC[C@H]2NC(=O)[C@@H](Cc3c[nH]c4ccccc34)NC(=O)[C@H](CCCCN)NC(=O)[C@H](CCC(=O)NCCCC[C@@H](C(=O)NCC(N)=O)NC(=O)[C@H](Cc3c[nH]c4ccccc34)NC2=O)NC1=O)
- isolated yield [1]: 11%

Substance: {CH2CO}-RER[dF][dC]FKG-NH2 (lactam 2-7; thioether N-5; SMILES N=C(N)NCCC[C@@H]1NC(=O)CSC[C@H]2NC(=O)[C@@H](Cc3ccccc3)NC(=O)[C@H](CCCNC(=N)N)NC(=O)[C@H](CCC(=O)NCCCC[C@@H](C(=O)NCC(N)=O)NC(=O)[C@H](Cc3ccccc3)NC2=O)NC1=O)
- isolated yield [1]: 3%

Bridges are numbered along the chain shown (N, C = ends). [ ]: non-standard residue; d: D form.
